# In all, about 33,000 sequences were measured (“E-score (-0.5 to 0.5)”: median about -0.0034, highest 2% from about 0.25 on). Some of the results follow.
# Biological target: T1, Yap3 (UniProt P38749)
# T1 sequence: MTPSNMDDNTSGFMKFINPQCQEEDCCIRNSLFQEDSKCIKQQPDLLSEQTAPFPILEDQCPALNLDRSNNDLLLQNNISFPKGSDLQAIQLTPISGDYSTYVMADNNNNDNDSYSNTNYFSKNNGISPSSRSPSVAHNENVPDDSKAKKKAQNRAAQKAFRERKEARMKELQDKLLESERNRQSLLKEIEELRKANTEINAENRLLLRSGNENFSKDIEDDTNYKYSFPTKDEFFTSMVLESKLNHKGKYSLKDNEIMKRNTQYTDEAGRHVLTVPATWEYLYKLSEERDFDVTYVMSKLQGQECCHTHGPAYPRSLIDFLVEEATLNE
# Assay: PBM E-score (8-mer binding enrichment) (E-score (-0.5 to 0.5)); higher = stronger / more preferred TF binding
# Conditions: protein concentration: 100 nM; construct: GST-full length
# Summary of the method: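 Universal all-10-mer Agilent arrays, double-stranded by primer extension on fresh or once-stripped slides, were probed with about 100-200 nM GST-tagged yeast transcription factors made by PURExpress. Fluorescent anti-GST detected bound protein, and masliner normalised the scans. E-scores from the Universal PBM Analysis Suite were given to each ungapped eight-base word pooled with its reverse complement.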
row,Sequence,PBM E-score
1,AAGCGAAA,0.0738
2,AATCAAAG,-9e-05
3,ATGATGAC,0.161
4,ACCGTGGC,-0.174
5,AGTCTATA,-0.125
6,AATTAAAG,0.121
7,CTCAGCAA,0.0502
8,AACACATG,0.121
9,CAGGGCTA,-0.145
10,AGTTAAAG,0.111
11,CCACTGTC,-0.187
12,CCGCCTTC,-0.156
13,GCGTTTAA,0.122
14,AAGTGCGA,-0.247
15,CCCGAAGG,-0.122
16,CGCTTCTA,0.0325
17,GCACACTA,0.0181
18,TGCTAGCA,-0.0927
19,CGCGCGAA,-0.00819
20,AGAACGCG,0.14
21,CCAGGAAA,0.108
22,CCTTCCTA,-0.253
23,ACCATCTG,-0.0917
24,ATGGACCG,-0.0751
25,CCATACCA,0.0238

row,Sequence,PBM E-score
1,CTTGTGAC,-0.0821
2,CATGGTTC,0.123
3,ATTGAGGC,0.0601
4,ATACAGCC,0.00933
5,CACCCCGC,-0.207
6,AATATGGA,0.123
7,ACGCACCT,-0.0472
8,GGTCTTAC,-0.123
9,ACTTGGCC,-0.0737
10,AGCTCAGA,-0.0842
11,CAGGTTCC,-0.113
12,CCGCTTGC,-0.066
13,CGCCTTCA,-0.295
14,AACTGGAA,0.0582
15,AGTGTGTG,0.0249
16,GAGGAACC,-0.0896
17,CATCAATC,-0.0452
18,CAGTGCGG,-0.138
19,CTTTCTAC,0.157
20,GAACAACA,0.12
21,AGAAGACG,0.2
22,CGGGCAGA,0.00944
23,CACTCAAA,0.0945
24,AGATTACT,0.122
25,ATTACATA,0.233

row,Sequence,PBM E-score
1,TCATTACA,0.247
2,CTAAACTC,-0.0352
3,CTAGAAAG,0.0742
4,AGATACCT,-0.0664
5,GCGGTGTA,-0.064
6,AAAGACGG,-0.00958
7,AACGTGTA,-0.0475
8,GGGCAATA,0.0845
9,ATATCAGC,0.0878
10,CGACTTTA,0.0707
11,TGAATGAA,0.182
12,CAAGTTCG,-0.0995
13,ACGGAACT,0.0114
14,ATCGAAAT,0.0378
15,AGAGATCA,0.0988
16,CTGTAATC,-0.00575
17,TATCAGCA,0.0717
18,ACCCAAGG,0.0773
19,TAACGGGA,-0.124
20,CAAGATGA,-0.0997
21,ATCGACTA,0.0167
22,CGGACGAC,-0.109
23,CAAGATAA,0.221
24,ATAATGGG,0.139
25,ATATGTAA,0.211

row,Sequence,PBM E-score
1,AGACCAGC,-0.265
2,ACTCCGTA,-0.0154
3,ACGGTTCC,-0.0727
4,CTTATCGC,-0.0461
5,TGGCACCA,-0.233
6,GACCGCAC,-0.108
7,AGCGCGAT,0.103
8,GCAGTCCA,-0.0876
9,ATTGTGGG,-0.00325
10,ATTCTGCA,0.191
11,ATCTGGGC,-0.18
12,GCTCCGAC,-0.0921
13,CCAAACCG,-0.00088
14,GTCAAGAC,-0.264
15,ACCTAAAG,-0.028
16,AGACGTTC,0.0209
17,ATGCGCCA,0.00516
18,AACTCTAC,-0.125
19,ACAAGTAG,-0.0752
20,AGGGAGAA,-0.212
21,CAACCAAA,0.118
22,CCTCTTAA,0.0653
23,CATTGCTA,0.117
24,CCACTACA,0.001
25,AGTAAGCC,-0.00081

row,Sequence,PBM E-score
1,CCAATTCG,0.0968
2,AAGGTCTG,-0.0756
3,ATTTCGCA,0.17
4,CCCAAAGG,-0.2
5,CTCACATC,0.0384
6,CGTAAGTA,0.13
7,AGATAAGC,-0.0117
8,TCCTTTCA,0.062
9,AGTAAAGC,0.0886
10,CATATATA,0.227
11,GAGCTACA,-0.202
12,AGGGACCC,-0.244
13,CGCCGTTC,0.00858
14,CCTGAGAC,-0.185
15,ACGATCGG,0.103
16,AGACAATG,0.0142
17,AACCGCCG,0.00187
18,AACAGGAC,-0.0617
19,GATAATGA,0.213
20,GACCCATA,0.00299
21,AACCGTTA,-0.0804
22,GTGCAATA,0.0948
23,AAATGCGC,0.136
24,ACTCACGC,-0.112
25,GGTCATCA,-0.00149

# 35 neighbouring entries out of the list so far:
row,Sequence,PBM E-score
16,AGACGTTC,0.0209
17,ATGCGCCA,0.00516
18,AACTCTAC,-0.125
19,ACAAGTAG,-0.0752
20,AGGGAGAA,-0.212
21,CAACCAAA,0.118
22,CCTCTTAA,0.0653
23,CATTGCTA,0.117
24,CCACTACA,0.001
25,AGTAAGCC,-0.00081
1,CCAATTCG,0.0968
2,AAGGTCTG,-0.0756
3,ATTTCGCA,0.17
4,CCCAAAGG,-0.2
5,CTCACATC,0.0384
6,CGTAAGTA,0.13
7,AGATAAGC,-0.0117
8,TCCTTTCA,0.062
9,AGTAAAGC,0.0886
10,CATATATA,0.227
11,GAGCTACA,-0.202
12,AGGGACCC,-0.244
13,CGCCGTTC,0.00858
14,CCTGAGAC,-0.185
15,ACGATCGG,0.103
16,AGACAATG,0.0142
17,AACCGCCG,0.00187
18,AACAGGAC,-0.0617
19,GATAATGA,0.213
20,GACCCATA,0.00299
21,AACCGTTA,-0.0804
22,GTGCAATA,0.0948
23,AAATGCGC,0.136
24,ACTCACGC,-0.112
25,GGTCATCA,-0.00149

# Additional results.

row,Sequence,PBM E-score
1,CATCGTAA,0.0529
2,ACTCTATA,0.0769
3,AAGAAAGT,0.233
4,AGGTGTCC,-0.0437
5,GCCGATTA,0.0944
6,GCGTCAGA,-0.0584
7,AACTACTA,0.244
8,ACATCACA,0.083
9,CCTACTAC,-0.17
10,CCAGGCCC,-0.235
11,ATTGCCCC,0.158
12,ATCCCAAA,0.0661
13,TCAATCGA,0.112
14,ACGTAGTG,0.0166
15,AGACGCCT,-0.138
16,GATTACCA,0.153
17,CATTAGGG,-0.0667
18,AAAGTAGT,0.0701
19,CAGAGTGG,-0.129
20,AGAAACAG,0.106
21,AGGCCAGG,-0.144
22,AAGACGCC,-0.0305
23,CTAATATA,0.235
24,ATCAAAAG,0.122
25,CCTCGTAC,0.00719

row,Sequence,PBM E-score
1,AACTTTTA,0.113
2,CCTAGGTC,-0.038
3,ATGAGTAC,0.0895
4,GGCCTACC,-0.057
5,GCCGTGCA,-0.0679
6,TAACTGGA,-0.0224
7,GGAACCCC,-0.141
8,CTGACAAG,0.154
9,GCTTTACC,0.038
10,CCTCAAAA,0.0175
11,CTGTCAAG,-0.179
12,ACACACGG,-0.233
13,GCGCACCC,-0.174
14,GCCTGAAA,0.0756
15,CAACGCAG,-0.195
16,ATGCTGAG,-0.202
17,GAATAACC,0.022
18,AACCGACC,0.0586
19,GACGCTCC,-0.149
20,CATGCTAA,0.0237
21,GAACGTGA,0.0804
22,GCCTCGTA,0.141
